# No constants are given. Whether binding was seen depends on the method and setting. In cells and extracts the contact can be indirect. Some entries that bind do so weakly or less than the wild type. Sequences can lack the tags named with a protein.
# Chains of the proteins cited; added tags and fusions are not shown. Residues count along the entry.
# UniProt Q9QUK6, residues 26-835: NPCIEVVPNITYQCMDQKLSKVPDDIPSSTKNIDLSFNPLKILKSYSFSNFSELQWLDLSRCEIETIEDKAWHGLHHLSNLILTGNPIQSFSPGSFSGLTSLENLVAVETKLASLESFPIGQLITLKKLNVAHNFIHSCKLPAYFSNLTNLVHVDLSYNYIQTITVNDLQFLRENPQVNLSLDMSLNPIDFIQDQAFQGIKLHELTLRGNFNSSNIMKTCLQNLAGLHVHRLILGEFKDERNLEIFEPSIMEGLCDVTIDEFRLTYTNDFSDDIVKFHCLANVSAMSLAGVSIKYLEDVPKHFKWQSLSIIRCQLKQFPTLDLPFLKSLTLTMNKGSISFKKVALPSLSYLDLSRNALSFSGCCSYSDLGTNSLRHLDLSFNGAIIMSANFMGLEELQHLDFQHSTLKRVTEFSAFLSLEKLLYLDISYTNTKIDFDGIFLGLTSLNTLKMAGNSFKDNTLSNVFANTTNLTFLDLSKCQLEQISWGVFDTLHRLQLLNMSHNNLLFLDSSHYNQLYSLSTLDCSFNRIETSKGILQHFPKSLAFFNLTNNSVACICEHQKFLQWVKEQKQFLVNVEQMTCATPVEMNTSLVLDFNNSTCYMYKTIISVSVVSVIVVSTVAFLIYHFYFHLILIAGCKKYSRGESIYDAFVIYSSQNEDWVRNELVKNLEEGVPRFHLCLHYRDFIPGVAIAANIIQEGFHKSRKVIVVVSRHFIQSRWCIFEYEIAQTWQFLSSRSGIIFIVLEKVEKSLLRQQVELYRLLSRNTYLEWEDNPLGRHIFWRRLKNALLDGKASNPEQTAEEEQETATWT
# Target: T1, γ-aminobutyric acidA receptor (GABAAR) α2 subunit, expressed from the GABRA2^phGFP plasmid (UniProt P26048)
# T1 sequence: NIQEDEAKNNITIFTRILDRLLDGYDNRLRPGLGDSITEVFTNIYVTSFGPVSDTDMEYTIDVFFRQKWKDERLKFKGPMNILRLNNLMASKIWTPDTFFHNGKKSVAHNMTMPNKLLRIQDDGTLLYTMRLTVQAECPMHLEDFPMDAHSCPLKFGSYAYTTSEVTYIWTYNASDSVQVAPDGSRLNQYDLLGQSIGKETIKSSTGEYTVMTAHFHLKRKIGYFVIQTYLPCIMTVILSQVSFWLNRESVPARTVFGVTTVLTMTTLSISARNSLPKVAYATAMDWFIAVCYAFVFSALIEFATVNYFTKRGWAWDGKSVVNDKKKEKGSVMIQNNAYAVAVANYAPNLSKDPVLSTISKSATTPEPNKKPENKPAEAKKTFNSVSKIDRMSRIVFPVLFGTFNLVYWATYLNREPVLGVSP
# Assay: co-IP; N2a cells transfected with α2, 24 h; cross-linked with 1 mM DSP (cleavable, membrane-permeable; 20 min on ice); extracted with Pierce IP Lysis Buffer; 250 µg lysate pre-cleared with normal IgG; IP with α2 or TLR4 antibody or normal IgG (4 µg) and Protein A/G Plus-Agarose, overnight at 4 °C; four washes; reciprocal immunoblot with α2 or TLR4 antibodies
substance,measurement,value
"Toll-like receptor 4 (TLR4), endogenous in N2a cells (from UniProt Q9QUK6 26-835)",binding,binds

# Source: paper PMC5924408
